Test results as given in article PMC7230731, “Marine-Inspired Bis-indoles Possessing Antiproliferative Activity against Breast Cancer; Design, Synthesis, and Biological Evaluation” (Marine Drugs, 2020).

System: MDA-MB-231 cells
Test: SRB antiproliferative assay, MDA-MB-231
Format: cell-based
Settings: Homo sapiens, MDA-MB-231, 48 h, MDA-MB-231 triple-negative breast cancer cells, mean ± S.D. of three experiments
Protocol: 1. Anti-proliferative action toward human breast cell lines […]
and non-tumorigenic human breast epithelial cell line (MCF-10A) have been obtained from American Type Culture Collection (ATCC). The cells were maintained in Dulbecco's modified Eagle's medium (DMEM) supplemented with 10% heat inactivated fetal calf serum (GIBCO), penicillin (100 U/ml) and streptomycin (100 µg/ml) at 37 °C in humidified atmosphere containing 5% CO2. […]
grown in a 25 cm2 flask in 5 ml of culture medium.
The anti-proliferative activity of the tested compounds was measured in vitro using the Sulfo-Rhodamine-B stain (SRB) assay. Briefly, Cells were inoculated in 96-well microtiter plate (5X104 cells/ well) for 24 h before treatment with the tested compounds to allow attachment of cell to the wall of the plate. Tested compounds were dissolved in DMSO at 1 mg/ml immediately before use and diluted to the appropriate volume just before addition to the cell culture. Different concentrations of tested compounds, doxorubicin and sorafenib were added to the cells (three wells were prepared for each […]
atmosphere of 5% CO2. After 48 h cells were fixed, washed, and stained for 30 min with 0.4% (w/v) SRB dissolved in 1% acetic acid. Unbound dye was removed by four washes with 1% acetic acid, and attached stain was recovered with Tris-EDTA buffer. Color intensity was measured in an ELISA reader. […]

CN[C@@H]1C[C@H]2O[C@@](C)([C@@H]1OC)n1c3ccccc3c3c4c(c5c6ccccc6n2c5c31)C(=O)NC4 [Staurosporine, reference compound]
IC50: 10.3 ± 0.72 µM
